Test [1] has as its target Aurora kinase B (human (endogenous in PC-3U and in patient tissue)) (UniProt Q96GD4). Description: proximity ligation; in situ PLA, brightfield, on prostate cancer tissue microarrays with antibodies against AURKB and TβRI.
Test [2] has the same target. As to the kind of experiment: co-IP; lysates of synchronized PC-3U cells, endogenous proteins; immunoprecipitation with an AURKB antibody, immunoblotting for TβRI, APPL1 and TRAF6.
In the next test the target is HA-AURKB (human) (UniProt Q96GD4). As to the kind of experiment: co-IP; PC-3U cells transiently transfected with HA-AURKB and GFP-APPL1 domains, synchronized; immunoprecipitation with an HA antibody, immunoblotting with a GFP antibody. (In general: In western blotting, separated proteins are transferred to a membrane and probed.)

The chains behind the UniProt entries cited, without tags or fusion partners.
UniProt Q96GD4: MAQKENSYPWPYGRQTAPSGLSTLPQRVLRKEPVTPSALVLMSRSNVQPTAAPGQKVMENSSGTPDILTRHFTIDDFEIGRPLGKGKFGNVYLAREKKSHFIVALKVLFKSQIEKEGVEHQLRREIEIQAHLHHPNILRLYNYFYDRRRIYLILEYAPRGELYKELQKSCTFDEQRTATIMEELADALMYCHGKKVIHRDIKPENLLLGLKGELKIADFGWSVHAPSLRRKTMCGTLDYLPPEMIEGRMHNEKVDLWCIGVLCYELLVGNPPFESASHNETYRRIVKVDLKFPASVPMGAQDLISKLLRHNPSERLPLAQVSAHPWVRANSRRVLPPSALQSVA

Results are given in words; binding and its absence hold for the method and conditions named. Binding seen in cells or lysates may run through a third protein. Some results given as binding are weak or reduced against the parent protein; the word gives no strength. For some assays here: Where a sequence is shown, tags or fusion partners need not be part of it.

B1: TGFβ type I receptor (receptor, UniProt P36897 34-503)
chain: LQCFCHLCTKDNFTCVTDGLCFVSVTETTDKVIHNSMCIAEIDLIPRDRPFVCAPSSKTGSVTTTYCCNQDHCNKIELPTTVKSSPGLGPVELAAVIAGPVCFVCISLMLMVYICHNRTVIHHRVPNEEDPSLDRPFISEGTTLKDLIYDMTTSGSGSGLPLLVQRTIARTIVLQESIGKGRFGEVWRGKWRGEEVAVKIFSSREERSWFREAEIYQTVMLRHENILGFIAADNKDNGTWTQLWLVSDYHEHGSLFDYLNRYTVTVEGMIKLALSTASGLAHLHMEIVGTQGKPAIAHRDLKSKNILVKKNGTCCIADLGLAVRHDSATDTIDIAPNHRVGTKRYMAPEVLDDSINMKHFESFKRADIYAMGLVFWEIARRCSIGGIHEDYQLPYYDLVPSDPSVEEMRKVVCEQKLRPNIPNRWQSCEALRVMAKIMRECWYANGAARLTALRIKKTLSQLSQQEGIKM
As to B1, the binding entry in test [1] and in test [2] was “binds” in each case.

B2: GFP-APPL1 BAR domain (domain or fragment, UniProt Q9UKG1 3-268)
chain: GIDKLPIEETLEDSPQTRSLLGVFEEDATAISNYMNQLYQAMHRIYDAQNELSAATHLTSKLLKEYEKQRFPLGGDDEVMSSTLQQFSKVIDELSSCHAVLSTQLADAMMFPITQFKERDLKEILTLKEVFQIASNDHDAAINRYSRLSKKRENDKVKYEVTEDVYTSRKKQHQTMMHYFCALNTLQYKKKIALLEPLLGYMQAQISFFKMGSENLNEQLEEFLANIGTSVQNVRREMDSDIETMQQTIEDLEVASDPLYVPDPDP
With B2, the binding entry in the test with HA-AURKB (human) was “binds”.

B3: Adaptor Protein, Phosphotyrosine Interacting with PH Domain and Leucine Zipper 1 (protein, UniProt Q9UKG1 1-709)
chain: MPGIDKLPIEETLEDSPQTRSLLGVFEEDATAISNYMNQLYQAMHRIYDAQNELSAATHLTSKLLKEYEKQRFPLGGDDEVMSSTLQQFSKVIDELSSCHAVLSTQLADAMMFPITQFKERDLKEILTLKEVFQIASNDHDAAINRYSRLSKKRENDKVKYEVTEDVYTSRKKQHQTMMHYFCALNTLQYKKKIALLEPLLGYMQAQISFFKMGSENLNEQLEEFLANIGTSVQNVRREMDSDIETMQQTIEDLEVASDPLYVPDPDPTKFPVNRNLTRKAGYLNARNKTGLVSSTWDRQFYFTQGGNLMSQARGDVAGGLAMDIDNCSVMAVDCEDRRYCFQITSFDGKKSSILQAESKKDHEEWICTINNISKQIYLSENPEETAARVNQSALEAVTPSPSFQQRHESLRPAAGQSRPPTARTSSSGSLGSESTNLAALSLDSLVAPDTPIQFDIISPVCEDQPGQAKAFGQGGRRTNPFGESGGSTKSETEDSILHQLFIVRFLGSMEVKSDDHPDVVYETMRQILAARAIHNIFRMTESHLLVTCDCLKLIDPQTQVTRLTFPLPCVVLYATHQENKRLFGFVLRTSSGRSESNLSSVCYIFESNNEGEKICDSVGLAKQIALHAELDRRASEKQKEIERVKEKQQKELNKQKQIEKDLEEQSRLIAASSRPNQASSEGQFVVLSSSQSEESDLGEGGKKRESEA
Regarding B3, the binding entry in test [2] is listed as “binds”.

B4: GFP-APPL1 PH domain (domain or fragment, UniProt Q9UKG1 277-375)
chain: LTRKAGYLNARNKTGLVSSTWDRQFYFTQGGNLMSQARGDVAGGLAMDIDNCSVMAVDCEDRRYCFQITSFDGKKSSILQAESKKDHEEWICTINNISK
With B4, in the test with HA-AURKB (human), the binding entry is “binds”.

Source of the values: article PMC9386726.
